{"source": "PubChem BioAssay AID1224830 (NIAID, 2016)", "aim": "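Regulators of TLR4 signalling towards TNF-alpha in macrophage-like cells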 (primary screen)", "cell system": "human THP-1 monocytic leukaemia cells, TNF dual-luciferase reporter clone, PMA-differentiated to macrophage-like cells", "knock-down reagent": "siRNA pool against human genes, 50 nM", "duration": "LPS for 4 h, given about 3 days after siRNA transfection", "conditions": "bacterial LPS (TLR4 ligand), 10 ng/ml", "measurement": "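TNF firefly reporter luminescence divided by renilla, normalised to the plate median, then turned into a robust z-score for each replicate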", "direction": "TNF reporter robust z-score: higher = stronger TNF reporter response to LPS", "hit rule": "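a well is active when its z-score exceeds 2.8 or falls below -1.5; control wells carry no call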", "note": "Here is a random part of about 18,000 reagents. About 2,900 of all reagents (16%) were called active. 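Calls are made per well; low scores hint the gene aids the LPS response, high scores that it dampens it.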 A number with no mark means an inactive call. Repeated entries: four replicate wells of each siRNA pool."}
{"Gene": "LINC02914 (long independently transcribed non-coding RNA 2914)", "TNF reporter robust z-score": "-1.6 (active)"}
{"Gene": "LINC02914 (long independently transcribed non-coding RNA 2914)", "TNF reporter robust z-score": -1.44}
{"Gene": "LINC02914 (long independently transcribed non-coding RNA 2914)", "TNF reporter robust z-score": "-1.55 (active)"}
{"Gene": "LINC02914 (long independently transcribed non-coding RNA 2914)", "TNF reporter robust z-score": "-1.94 (active)"}
{"Gene": "PRXL2A (peroxiredoxin like 2A)", "TNF reporter robust z-score": 0.06}
{"Gene": "PRXL2A (peroxiredoxin like 2A)", "TNF reporter robust z-score": -0.18}
{"Gene": "PRXL2A (peroxiredoxin like 2A)", "TNF reporter robust z-score": 0.2}
{"Gene": "PRXL2A (peroxiredoxin like 2A)", "TNF reporter robust z-score": 0.23}
{"Gene": "TBC1D2 (TBC1 domain family member 2)", "TNF reporter robust z-score": 1.62}
{"Gene": "TBC1D2 (TBC1 domain family member 2)", "TNF reporter robust z-score": 1.23}
{"Gene": "TBC1D2 (TBC1 domain family member 2)", "TNF reporter robust z-score": 1.9}
{"Gene": "TBC1D2 (TBC1 domain family member 2)", "TNF reporter robust z-score": 1.09}
{"Gene": "PLPP3 (phospholipid phosphatase 3)", "TNF reporter robust z-score": -0.32}
{"Gene": "PLPP3 (phospholipid phosphatase 3)", "TNF reporter robust z-score": 0.13}
{"Gene": "PLPP3 (phospholipid phosphatase 3)", "TNF reporter robust z-score": 0.16}
{"Gene": "PLPP3 (phospholipid phosphatase 3)", "TNF reporter robust z-score": -0.6}
{"Gene": "PEX5L (peroxisomal biogenesis factor 5 like)", "TNF reporter robust z-score": -0.58}
{"Gene": "PEX5L (peroxisomal biogenesis factor 5 like)", "TNF reporter robust z-score": -0.05}
{"Gene": "PEX5L (peroxisomal biogenesis factor 5 like)", "TNF reporter robust z-score": -0.03}
{"Gene": "PEX5L (peroxisomal biogenesis factor 5 like)", "TNF reporter robust z-score": 0.22}
{"Gene": "KIF11 (kinesin family member 11)", "TNF reporter robust z-score": -0.54}
{"Gene": "KIF11 (kinesin family member 11)", "TNF reporter robust z-score": -0.66}
{"Gene": "KIF11 (kinesin family member 11)", "TNF reporter robust z-score": -1.33}
{"Gene": "KIF11 (kinesin family member 11)", "TNF reporter robust z-score": -0.21}
{"Gene": "CCDC6 (coiled-coil domain containing 6)", "TNF reporter robust z-score": -0.92}
{"Gene": "CCDC6 (coiled-coil domain containing 6)", "TNF reporter robust z-score": -0.54}
{"Gene": "CCDC6 (coiled-coil domain containing 6)", "TNF reporter robust z-score": -0.17}
{"Gene": "CCDC6 (coiled-coil domain containing 6)", "TNF reporter robust z-score": 0.22}
{"Gene": "DNAJB6 (DnaJ heat shock protein family (Hsp40) member B6)", "TNF reporter robust z-score": "-1.6 (active)"}
{"Gene": "DNAJB6 (DnaJ heat shock protein family (Hsp40) member B6)", "TNF reporter robust z-score": -1.02}
{"Gene": "DNAJB6 (DnaJ heat shock protein family (Hsp40) member B6)", "TNF reporter robust z-score": -1.18}
{"Gene": "DNAJB6 (DnaJ heat shock protein family (Hsp40) member B6)", "TNF reporter robust z-score": -0.53}
{"Gene": "ALDH18A1 (aldehyde dehydrogenase 18 family member A1)", "TNF reporter robust z-score": -1.29}
{"Gene": "ALDH18A1 (aldehyde dehydrogenase 18 family member A1)", "TNF reporter robust z-score": -0.34}
{"Gene": "ALDH18A1 (aldehyde dehydrogenase 18 family member A1)", "TNF reporter robust z-score": 0.01}
{"Gene": "ALDH18A1 (aldehyde dehydrogenase 18 family member A1)", "TNF reporter robust z-score": -0.04}
{"Gene": "SEPTIN9 (septin 9)", "TNF reporter robust z-score": -1.02}
{"Gene": "SEPTIN9 (septin 9)", "TNF reporter robust z-score": 0.75}
{"Gene": "SEPTIN9 (septin 9)", "TNF reporter robust z-score": 0.5}
{"Gene": "SEPTIN9 (septin 9)", "TNF reporter robust z-score": 0.31}
{"Gene": "MPIG6B (megakaryocyte and platelet inhibitory receptor G6b)", "TNF reporter robust z-score": -0.54}
{"Gene": "MPIG6B (megakaryocyte and platelet inhibitory receptor G6b)", "TNF reporter robust z-score": -0.46}
{"Gene": "MPIG6B (megakaryocyte and platelet inhibitory receptor G6b)", "TNF reporter robust z-score": -0.53}
{"Gene": "MPIG6B (megakaryocyte and platelet inhibitory receptor G6b)", "TNF reporter robust z-score": -0.01}
{"Gene": "PXMP2 (peroxisomal membrane protein 2)", "TNF reporter robust z-score": -0.99}
{"Gene": "PXMP2 (peroxisomal membrane protein 2)", "TNF reporter robust z-score": -1.46}
{"Gene": "PXMP2 (peroxisomal membrane protein 2)", "TNF reporter robust z-score": -0.73}
{"Gene": "PXMP2 (peroxisomal membrane protein 2)", "TNF reporter robust z-score": -1.01}

Reagents listed so far called active, once more:
{"Gene": "LINC02914 (long independently transcribed non-coding RNA 2914)", "TNF reporter robust z-score": "-1.6 (active)"}
{"Gene": "LINC02914 (long independently transcribed non-coding RNA 2914)", "TNF reporter robust z-score": "-1.55 (active)"}
{"Gene": "LINC02914 (long independently transcribed non-coding RNA 2914)", "TNF reporter robust z-score": "-1.94 (active)"}
{"Gene": "DNAJB6 (DnaJ heat shock protein family (Hsp40) member B6)", "TNF reporter robust z-score": "-1.6 (active)"}
